Assay results taken from paper PMC11574162.
Results are given in words; binding and its absence hold for the method and conditions named. In cells and extracts the contact can be indirect. Some entries that bind do so weakly or less than the wild type.

Biological target: T1, LIM homeodomain transcription factor Islet1 (ISL1) (human (endogenous in hLECs)) (UniProt P61371)
T1 sequence: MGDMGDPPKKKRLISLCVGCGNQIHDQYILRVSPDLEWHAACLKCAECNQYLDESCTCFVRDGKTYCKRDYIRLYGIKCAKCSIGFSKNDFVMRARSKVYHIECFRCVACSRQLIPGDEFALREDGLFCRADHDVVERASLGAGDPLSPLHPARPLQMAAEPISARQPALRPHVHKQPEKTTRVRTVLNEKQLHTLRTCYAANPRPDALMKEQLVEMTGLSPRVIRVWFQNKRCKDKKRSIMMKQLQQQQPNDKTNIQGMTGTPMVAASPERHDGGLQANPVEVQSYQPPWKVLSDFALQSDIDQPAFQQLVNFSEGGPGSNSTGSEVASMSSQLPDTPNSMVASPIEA
Experiment: co-IP; reciprocal; whole lysates of LECs incubated 12 h at 4 °C with anti-ISL1 or anti-CDK5 antibody, protein-A/G agarose beads 8 h at 4 °C, washed with PBS, immunoblot; cells also transfected with Adv-NC or Adv-Efnb2 under normoxia or hypoxia

binding: binds
Substance: CDK5 (from UniProt Q00535 1-292)
